## Results from one PubChem assay

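Malaria parasite (P. falciparum) lines kept in red blood cells; parasite DNA is measured by SYBR Green fluorescence after lysis, 72 h after compound addition. Each compound was titrated across a series from about 0.000037 to 29 µM. The number is the fitted AC50, the concentration giving a half-maximal change in signal; a lower value means higher potency, whether the curve shows a decrease or an increase. Calls follow the curve class and fit quality: every row here is inconclusive, covering signal-raising curves and weak, poorly fitted, partial or highest-dose-only inhibition curves.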

Values are in nM. All entries here are filed as inconclusive. Only part of the assay is shown, chiefly results filed as inconclusive. A potency from a partial, single-point or poor curve is only a rough figure. The first word of each remark tells which way the curve ran; it can be opposite to the aim of the assay.

compound: C[N+]1(C)[C@@H]2CC(OC(=O)[C@@H](CO)c3ccccc3)C[C@@H]1[C@H]1O[C@H]12 (some centres undefined)
setting: CP215
fitted potency (nM): 19011
remark: inhibitor, single point

compound: O=C1NS(=O)(=O)c2ccccc21
setting: parasite line B
fitted potency (nM): 17782
remark: inhibitor, single point

compound: O=C1NS(=O)(=O)c2ccccc21
setting: ATS95
fitted potency (nM): 10000
remark: inhibitor, single point

compound: CC1=CCC(C(C)(C)O)CC1 (centres undefined)
setting: CP203
fitted potency (nM): 3.4
remark: activator, full curve, poor fit

compound: COCC(=O)Nc1cc(Sc2ccccc2)ccc1N=C(NC(=O)OC)NC(=O)OC
setting: W2
fitted potency (nM): 11995
remark: inhibitor, single point

compound: O=c1[nH]c(=O)n(Cl)c(=O)n1Cl
setting: CP215
fitted potency (nM): 19011
remark: inhibitor, single point

compound: CN(C)CCCSc1ccccc1NC(=O)/C=C/c1ccccc1
setting: CP237
fitted potency (nM): 3162
remark: inhibitor, partial curve

compound: CN(C)CCCSc1ccccc1NC(=O)/C=C/c1ccccc1
setting: CP297
fitted potency (nM): 16944
remark: inhibitor, single point

compound: CN(C)CCCSc1ccccc1NC(=O)/C=C/c1ccccc1
setting: DIV14
fitted potency (nM): 8492
remark: inhibitor, partial curve

compound: CN(C)CCCSc1ccccc1NC(=O)/C=C/c1ccccc1
setting: DIV17
fitted potency (nM): 9528
remark: inhibitor, partial curve, poor fit

compound: CN(C)CCCSc1ccccc1NC(=O)/C=C/c1ccccc1
setting: TAB109
fitted potency (nM): 12589
remark: inhibitor, single point

compound: CN(C)CCCSc1ccccc1NC(=O)/C=C/c1ccccc1
setting: CP268
fitted potency (nM): 6746
remark: inhibitor, partial curve, poor fit

compound: CN(C)CCCSc1ccccc1NC(=O)/C=C/c1ccccc1
setting: AA1029
fitted potency (nM): 11220
remark: inhibitor, single point

compound: CN(C)CCCSc1ccccc1NC(=O)/C=C/c1ccccc1
setting: GB4
fitted potency (nM): 7569
remark: inhibitor, partial curve

compound: CN(C)CCCSc1ccccc1NC(=O)/C=C/c1ccccc1
setting: Dd2
fitted potency (nM): 11220
remark: inhibitor, partial curve

compound: O=c1cc[nH]c(=S)[nH]1
setting: CP215
fitted potency (nM): 16944
remark: inhibitor, single point

compound: CCCCO
setting: CP266
fitted potency (nM): 4256
remark: inhibitor, single point

compound: CCCCO
setting: CP215
fitted potency (nM): 15101
remark: inhibitor, single point

compound: CCOC(=O)c1ncn2c1CN(C)C(=O)c1cc(F)ccc1-2
setting: CP266
fitted potency (nM): 21331
remark: inhibitor, single point

Some entries from above, unchanged:

| compound | setting | fitted potency (nM) | remark |
|---|---|---|---|
| `CCCCO` | CP266 | 4256 | inhibitor, single point |
| `CCOC(=O)c1ncn2c1CN(C)C(=O)c1cc(F)ccc1-2` | CP266 | 21331 | inhibitor, single point |

Data taken from PubChem BioAssay AID504749, deposited by NCATS (2011).